The list does not hold the whole screen: it is rich in T/C values a quarter to a half above the control, in often repeated tests (any T/C) and in doses without a T/C. Further doses and runs are listed elsewhere. T/C gives the treated animals as a percentage of the vehicle group. Some entries give survivors of the animals treated and no T/C: the source holds a T/C of zero for them, seemingly a mark for toxic or unscored doses. Some doses without a T/C left all or most animals alive at the check, yet need not have been tolerated: survival well below the control is almost never listed, so the zero probably covers shortened survival too. Counts of survivors are from the toxicity check (mostly the fifth day) where no day follows; animals may have died later. Schedule codes are those of the source, taken here to give the interval after Q, in days (D) or hours (H), and the number of doses after X. Some entries hold several experiments; their values stand side by side, smallest first. Some schedules carry Z or #; the key to these is not given. Where survival is the endpoint, the PubChem record calls one and a half times the control and up active, and a quarter to a half above the control has no call in these data; cut-offs in other NCI protocols can differ.

For this assay, the system named is L1210 leukemia ip in BDF1 mice, survival T/C. In words: NCI In Vivo Anticancer Drug Screen. Data for tumor model L1210 Leukemia (intraperitoneal) in B6D2F1 (BDF1) mice. The following applies: T/C endpoint: mean survival time, higher T/C = longer survival.
Setting [1] is: dose: 400.0 mg/kg/injection, schedule: Q01DX001 (ip), vehicle: Klucel (hydroxypropylcellulose) (HPC).
Setting [2] is: dose: 200.0 mg/kg/injection, schedule: Q01DX001 (ip), vehicle: saline.
The mark [3] stands for this setting: dose: 400.0 mg/kg/injection, schedule: Q01DX001 (ip), vehicle: saline.
Where [4] appears, read: dose: 200.0 mg/kg/injection, schedule: Q04DX003 (ip), vehicle: saline with Tween-80.
Where [5] appears, read: dose: 400.0 mg/kg/injection, schedule: Q04DX003 (ip), vehicle: saline with Tween-80.

As to `CN(C)C=NC1CCC(CC2CCCCC2)CC1` (stereo not drawn), the survivor count under setting [1] is recorded as 2 of 6.

As to `CC(O)C[As](=O)(O)c1cccc(Cl)c1` (stereo not drawn), the survivor count by setting is: (dose: 25.0 mg/kg/injection, schedule: Q01DX001 (ip), vehicle: Klucel (hydroxypropylcellulose) (HPC)) 0 of 6; (dose: 50.0 mg/kg/injection, schedule: Q01DX001 (ip), vehicle: Klucel (hydroxypropylcellulose) (HPC)) 0 of 6; (dose: 100.0 mg/kg/injection, schedule: Q01DX001 (ip), vehicle: Klucel (hydroxypropylcellulose) (HPC)) 0 of 6; (dose: 200.0 mg/kg/injection, schedule: Q01DX001 (ip), vehicle: Klucel (hydroxypropylcellulose) (HPC)) 0 of 6; under setting [1], 0 of 6.

For the compound `C/C(=N/N=C(N)N)C(C)C`, the survivor count (dose: 120.0 mg/kg/injection, schedule: Q01DX Z (ip), vehicle: carboxymethylcellulose (CMC)) was 4 of 6; the survivor count (dose: 240.0 mg/kg/injection, schedule: Q01DX Z (oral), vehicle: carboxymethylcellulose (CMC)) is given as 1 of 6; the survivor count (dose: 480.0 mg/kg/injection, schedule: Q01DX Z (oral), vehicle: carboxymethylcellulose (CMC)) was 0 of 6; the survivor count (dose: 960.0 mg/kg/injection, schedule: Q01DX Z (oral), vehicle: carboxymethylcellulose (CMC)) is on record as 0 of 6.

On to `CC(=O)OCCC/C(=C\c1ccccc1)[N+](=O)[O-]`, for which the survivor count by setting is: under setting [2], 2 of 4; under setting [3], 0 of 4.

Consider `OC12c3ccccc3C(O)(c3ccccc31)C1c3ccccc3C2c2ccccc21`, for which the survivor count (dose: 200.0 mg/kg/injection, schedule: Q04DX002 (ip), vehicle: Klucel (hydroxypropylcellulose) (HPC)) is 3 of 3.

For the compound `O=[N+]([O-])c1ccc(O)c([N+](=O)[O-])c1`, the survivor count reads like this: (dose: 6.7 mg/kg/injection, schedule: Q01DX Z (ip), vehicle: carboxymethylcellulose (CMC)) 10 of 10; (dose: 13.4 mg/kg/injection, schedule: Q01DX Z (ip), vehicle: carboxymethylcellulose (CMC)) 10 of 10; (dose: 26.8 mg/kg/injection, schedule: Q01DX Z (ip), vehicle: carboxymethylcellulose (CMC)) 0 of 10; under setting [2], 0 of 6; under setting [3], 0 of 6.

Take `C=C(Br)CN=C=S`: the survivor count reads like this: (dose: 100.0 mg/kg/injection, schedule: Q04DX003 (ip), vehicle: saline with Tween-80) 6 of 6; under setting [4], 0 of 6; under setting [5], 0 of 6.

For `CCOC(=O)c1ccc(N(C=O)CCC(=O)CCl)cc1`, the survivor count (dose: 12.5 mg/kg/injection, schedule: Q01DX009 (ip), vehicle: saline) was 0 of 6; the survivor count (dose: 25.0 mg/kg/injection, schedule: Q01DX009 (ip), vehicle: saline) was 4 of 6 and 6 of 6; the survivor count (dose: 50.0 mg/kg/injection, schedule: Q01DX009 (ip), vehicle: carboxymethylcellulose (CMC)) is on record as 4 of 6; the survivor count (dose: 50.0 mg/kg/injection, schedule: Q01DX009 (ip), vehicle: saline) was 0 of 6; the survivor count (dose: 80.0 mg/kg/injection, schedule: Q01DX001 (ip), vehicle: saline) is 3 of 6; the survivor count (dose: 100.0 mg/kg/injection, schedule: Q01DX009 (ip), vehicle: carboxymethylcellulose (CMC)) is on record as 0 of 6. Besides, where the note is “dose: 100.0 mg/kg/injection, schedule: Q01DX009 (ip), vehicle: saline”, the survivor count was 0 of 6.

As for `CSc1ccc(NC(=O)Oc2cc3ccccc3cc2C(=O)Nc2ccc(Cl)cc2)cc1`, the survivor count (dose: 100.0 mg/kg/injection, schedule: Q04DX002 (ip), vehicle: saline with Tween-80) was 3 of 3.

Regarding `C=CCN(CC=C)CCNc1nc(C(Cl)(Cl)Cl)nc2ccc(Cl)cc12`, the survivor count under setting [5] is 6 of 6.

Consider `CC[N+](CC)(CC)CCCCCCCCCC[N+](CC)(CC)CC`, for which the survivor count by setting is: (dose: 1.56 mg/kg/injection, schedule: Q04DX003 (ip), vehicle: saline) 1 of 6; (dose: 3.12 mg/kg/injection, schedule: Q04DX003 (ip), vehicle: saline) 0 of 6; (dose: 6.25 mg/kg/injection, schedule: Q04DX003 (ip), vehicle: saline) 1 of 6; (dose: 100.0 mg/kg/injection, schedule: Q04DX003 (ip), vehicle: water) 0 of 6; (dose: 200.0 mg/kg/injection, schedule: Q04DX003 (ip), vehicle: water) 0 of 6; (dose: 400.0 mg/kg/injection, schedule: Q04DX003 (ip), vehicle: water) 0 of 6.

Consider `Cc1nc(N)[nH]c(=O)c1CCCCC#N`, for which, under “dose: 400.0 mg/kg/injection, schedule: Q01DX009 (ip), vehicle: Klucel (hydroxypropylcellulose) (HPC)”, the survivor count is recorded as 2 of 3.

`O=C1C(=O)c2ccccc2-c2ccccc21.O=C1C(=O)c2ccccc2-c2ccccc21.[Hg]`: the survivor count is, setting by setting: (dose: 12.5 mg/kg/injection, schedule: Q04DX003 (ip), vehicle: saline with Tween-80) 1 of 6; (dose: 25.0 mg/kg/injection, schedule: Q04DX003 (ip), vehicle: saline with Tween-80) 1 of 6.

On to `C[N+](C)(C)/N=C/c1ccccc1`, for which the survivor count is, setting by setting: (dose: 100.0 mg/kg/injection, schedule: Q01DX009 (ip), vehicle: Klucel (hydroxypropylcellulose) (HPC)) 0 of 6; (dose: 200.0 mg/kg/injection, schedule: Q01DX009 (ip), vehicle: Klucel (hydroxypropylcellulose) (HPC)) 0 of 6.

Take `Cc1cc(C)nc(NC(=O)COc2ccc(Cl)cc2)c1`: the survivor count (dose: 400.0 mg/kg/injection, schedule: Q04DX003 (ip), vehicle: Klucel (hydroxypropylcellulose) (HPC)) is on record as 3 of 6.

Consider `Nc1ccc2cc(S(=O)(=O)O)cc(S(=O)(=O)O)c2c1` (tested in a mixture with another compound), for which, under “dose: 115.0 mg/kg/injection, schedule: Q01DX Z (ip), vehicle: saline”, the survivor count was 6 of 6.

On to `COc1cc(C=Nc2cc(Cl)cc(Cl)c2)ccc1N(CCCl)CCCl`, for which the T/C by setting is: (dose: 30.0 mg/kg/injection, schedule: Q01DX015 (ip), vehicle: carboxymethylcellulose (CMC)) 130 % of control; (dose: 44.4 mg/kg/injection, schedule: Q01DX001 (ip), vehicle: carboxymethylcellulose (CMC)) 137 % of control; (dose: 50.0 mg/kg/injection, schedule: Q01DX015 (ip), vehicle: carboxymethylcellulose (CMC)) 133 % of control; (dose: 66.6 mg/kg/injection, schedule: Q01DX001 (ip), vehicle: carboxymethylcellulose (CMC)) 139 % of control; (dose: 100.0 mg/kg/injection, schedule: Q01DX001 (ip), vehicle: carboxymethylcellulose (CMC)) 134 % of control; (dose: 400.0 mg/kg/injection, schedule: Q01DX001 (ip), vehicle: carboxymethylcellulose (CMC)) 143 % of control.

On to `C=C(Br)CNC(=O)CCC`, for which the survivor count (dose: 20.0 mg/kg/injection, schedule: Q04DX003 (ip), vehicle: saline) is recorded as 2 of 6.

For the compound `CC12CCC(C1)C(C)(C)/C2=N\N=C(N)N` (stereo not drawn), the survivor count (dose: 1500.0 mg/kg/injection, schedule: Q01DX Z (oral), vehicle: saline) is reported as 1 of 6.

Regarding `CCCCCCCCCCCCCCCCCCNC(=O)Nc1cc(C(C)C)ccc1C`, the survivor count (dose: 200.0 mg/kg/injection, schedule: Q01DX009 (ip), vehicle: other) is listed as 6 of 6.

In the case of `CC1(C)N=C(N)N=C(N)N1c1cccc(CN)c1`, the survivor count was 0 of 6 (dose: 200.0 mg/kg/injection, schedule: Q01DX009 (ip), vehicle: saline); 2 of 6 (dose: 200.0 mg/kg/injection, schedule: Q04DX003 (ip), vehicle: saline); 1 of 6 (dose: 400.0 mg/kg/injection, schedule: Q04DX003 (ip), vehicle: saline).

As to `COC(=O)c1ccccc1N=NNc1ccccc1C(=O)OC`, the survivor count (dose: 400.0 mg/kg/injection, schedule: Q04DX002 (ip), vehicle: saline with Tween-80) is on record as 1 of 3.

On to `CCCCCCC1N(C)CCCN1C`, for which the survivor count is on record as 0 of 6 under setting [4] and 0 of 6 under setting [5].

The values above are taken from PubChem BioAssay AID248 (DTP/NCI, 2004).
